{
  "source": "PubChem BioAssay AID1724",
  "about": "(National Center for Advancing Translational Sciences (NCATS), 2009)",
  "note": "The inconclusive results got no clear call from the source; some entries with a clear call stand among them for comparison. A potency beside an inconclusive call is a rough fit, not a confirmed value. Active and inactive are the calls of the source. Calls come from the whole dose curve; as a rule, active = well fitted inhibition curve with a large enough effect; inconclusive = small, poorly fitted or top-dose-only effect, or effect the other way; inactive = no such curve, though single readings can be large or run the other way.",
  "data": [
    {"test": "Confirmation Concentration-Response Assay for Inhibitors of the ERK Signaling Pathway using a Homogeneous Screening Assay", "settings": "HEK293 cells, hormone-stimulated phospho-ERK AlphaScreen; series mostly up to 40.9 µM", "how_it_was_run": "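Vasopressin-V1b-expressing HEK293 cells, seeded overnight in 1% FBS, pretreated 30 min at 37C with compounds, then stimulated 5 min with 25 nM vasopressin. Phospho-ERK read by AlphaScreen after lysis and 5 hr beads; AC50 from Hill fit, normalized to DMSO and vasopressin.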", "values": [
      {"smiles": "CCOC(=O)Cc1csc(NC(=O)CSc2ncnc3c2cnn3-c2ccc(OC)cc2)n1", "Potency": "inconclusive: 14.1 µM [inhibitor, full curve, poor fit]"},
      {"smiles": "COc1ccccc1-c1nc(Nc2ccncc2)c2ccccc2n1", "Potency": "inconclusive: 2 µM [inhibitor, full curve]"},
      {"smiles": "COc1cc(C2CC(=O)c3c([nH]c(C(=O)OCCOC(C)C)c3C)C2)cc(OC)c1OC", "note": "(stereo not given)", "Potency": "inconclusive: 12.6 µM [inhibitor, full curve, poor fit]"},
      {"smiles": "Cc1cccc(CNc2nc(-c3ccoc3)nc3ccccc23)c1", "Potency": "inconclusive: 25.1 µM [activator, partial curve, poor fit]"},
      {"smiles": "Cc1cccc(CNc2ncnc3ccc(-c4cccc(NS(C)(=O)=O)c4)cc23)c1", "Potency": "inconclusive: 17.8 µM [inhibitor, partial curve, poor fit]"},
      {"smiles": "O=C(Nc1ccc2c(c1)OCCO2)c1ccc(Br)c(S(=O)(=O)N2CCOCC2)c1", "Potency": "inconclusive: 39.8 µM [inhibitor, single point]"},
      {"smiles": "C=CCN1C(=O)/C(=C/C=C2/N(CC)c3ccc(S(=O)(=O)N(C)C)cc3N2CC)SC1=S", "Potency": "inconclusive: 14.1 µM [inhibitor, partial curve, poor fit]"},
      {"smiles": "COc1ccc(CC(=O)Nc2cccc(-c3nnc(-c4cccc(C)c4)o3)c2)cc1OC", "Potency": "active: 4.47 µM"},
      {"smiles": "O=C(Nc1ccc(N2CCN(C(=O)c3ccco3)CC2)c(Cl)c1)c1cc2ccccc2o1", "Potency": "active: 7.94 µM"},
      {"smiles": "CC(C)Cn1c(N)c(C(=O)CSc2ccc3c(c2)OCCO3)c(=O)n(C)c1=O", "Potency": "inconclusive: 15.8 µM [inhibitor, partial curve]"}
    ]}
  ]
}
